For test [1], the target named is BSA (bovine) (UniProt P02769). The experiment in a line: BLI; nonspecific binding control: biotinylated BSA on streptavidin sensors, apparatus proteins as analytes at 1 uM; HBS-T, 25°C; both purified. (In general: BLI is a label-free optical method that tracks binding on a fibre tip over time.)
Test [2] deals with FlhB in hook-basal bodies (HBBs) prepared from SJW880 (Salmonella enterica (endogenous in SJW880)) (UniProt P40727). The experiment in a line: SDS-PAGE and anti-FlhB immunoblot (SDS-stable dimer); hook-basal body preparation from SJW880. Background: In western blotting, separated proteins are transferred to a membrane and probed.

Protein sequences, listed by entry. Tags and fused reporters are not part of them. Residues count along the entry.
UniProt P02769, residues 25-607: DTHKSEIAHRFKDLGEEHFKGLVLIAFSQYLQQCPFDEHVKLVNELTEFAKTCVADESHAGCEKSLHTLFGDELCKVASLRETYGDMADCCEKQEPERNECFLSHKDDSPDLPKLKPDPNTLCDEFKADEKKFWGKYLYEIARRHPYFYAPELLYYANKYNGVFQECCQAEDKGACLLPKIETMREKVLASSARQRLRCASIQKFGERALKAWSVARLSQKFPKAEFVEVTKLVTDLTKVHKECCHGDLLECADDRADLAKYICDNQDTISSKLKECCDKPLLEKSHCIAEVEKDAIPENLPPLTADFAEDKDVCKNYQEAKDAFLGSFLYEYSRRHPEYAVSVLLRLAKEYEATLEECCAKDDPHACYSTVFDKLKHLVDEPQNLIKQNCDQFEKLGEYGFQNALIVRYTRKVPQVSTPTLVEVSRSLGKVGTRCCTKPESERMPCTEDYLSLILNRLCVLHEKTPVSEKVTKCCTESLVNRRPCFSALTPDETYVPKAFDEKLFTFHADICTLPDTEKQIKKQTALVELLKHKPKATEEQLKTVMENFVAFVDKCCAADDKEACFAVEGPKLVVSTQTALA
UniProt P26465: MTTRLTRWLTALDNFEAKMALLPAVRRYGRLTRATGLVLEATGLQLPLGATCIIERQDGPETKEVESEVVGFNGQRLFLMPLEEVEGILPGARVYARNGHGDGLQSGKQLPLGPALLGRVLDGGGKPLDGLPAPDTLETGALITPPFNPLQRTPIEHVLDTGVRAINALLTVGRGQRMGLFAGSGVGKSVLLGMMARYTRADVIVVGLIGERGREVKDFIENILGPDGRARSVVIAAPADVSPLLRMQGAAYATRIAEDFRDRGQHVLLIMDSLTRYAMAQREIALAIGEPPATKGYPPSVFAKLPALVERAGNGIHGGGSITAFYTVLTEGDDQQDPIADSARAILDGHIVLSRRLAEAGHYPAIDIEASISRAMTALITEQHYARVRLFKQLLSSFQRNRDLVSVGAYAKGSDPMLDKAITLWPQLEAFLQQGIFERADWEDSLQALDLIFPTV
UniProt P0A1K1: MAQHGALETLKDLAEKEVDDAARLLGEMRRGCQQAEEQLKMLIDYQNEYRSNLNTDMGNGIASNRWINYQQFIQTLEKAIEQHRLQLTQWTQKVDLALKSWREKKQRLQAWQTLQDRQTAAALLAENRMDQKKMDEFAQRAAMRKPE

Results are given in words; binding and its absence hold for the method and conditions named. Some results given as binding are weak or reduced against the parent protein; the word gives no strength.

Turning to “FliI (from UniProt P26465 1-456) (enzyme)”, the binding result in test [1] is listed as “no binding (tested: 1 μM)”.
Consider FliJ (from UniProt P0A1K1 1-147), for which the binding entry in test [1] is listed as “no binding (tested: 1 μM)”.

B1: FliH (natural protein)
chain: MSNELPWQVWTPDDLAPPPETFVPVEADNVTLTEDTPEPELTAEQQLEQELAQLKIQAHEQGYNAGLAEGRQKGHAQGYQEGLAQGLEQGQAQAQTQQAPIHARMQQLVSEFQNTLDALDSVIASRLMQMALEAARQVIGQTPAVDNSALIKQIQQLLQQEPLFSGKPQLRVHPDDLQRVEEMLGATLSLHGWRLRGDPTLHHGGCKVSADEGDLDASVATRWQELCRLAAPGVL
modifications: biotin by amine crosslinking (NHS-LC-LC-biotin) when used as ligand
notes: source: E. coli BL21DE3(pLysS), purified (Talon IMAC, gel filtration into HBS-T)
As to B1, in test [1], the binding entry is listed as “no binding (tested: 1 μM)”.

B2: FlhB in hook-basal bodies (HBBs) prepared from SJW880 (protein, UniProt P40727 1-383)
chain: MAEESDDDKTEAPTPHRLEKAREEGQIPRSRELTSLLILLVGVCIIWFGGESLARQLAGMLSAGLHFDHRMVNDPNLILGQIILLIKAAMMALLPLIAGVVLVALISPVMLGGLIFSGKSLQPKFSKLNPLPGIKRMFSAQTGAELLKAVLKSTLVGCVTGFYLWHHWPQMMRLMAESPIVAMGNALDLVGLCALLVVLGVIPMVGFDVFFQIFSHLKKLRMSRQDIRDEFKESEGDPHVKGKIRQMQRAAAQRRMMEDVPKADVIVTNPTHYSVALQYDENKMSAPKVVAKGAGLIALRIREIGAEHRVPTLEAPPLARALYRHAEIGQQIPGQLYAAVAEVLAWVWQLKRWRLAGGQRPPQPENLPVPEALDFMNEKNTDG
Take B2: the binding entry in test [2] is reported as “binds”.

Values taken from paper PMC4526367, “Weak Interactions between Salmonella enterica FlhB and Other Flagellar Export Apparatus Proteins Govern Type III Secretion Dynamics” (PLoS ONE, 2015).
